Measured values reported in publication PMC4792965.
These are yes or no findings as the source states them, for the method shown. Tags and fused reporters may be left off the sequences shown.

Biological target: PatA (Phosphatidyl-myo-inositol mannosides AcylTransferase A) from Mycobacterium smegmatis, truncated version lacking the first 12 residues (Mycobacterium smegmatis) (UniProt A0QWG5)
Test: crystal structure; three crystal forms of PatA with bound palmitate (C2, P21, P42212; two, four and one molecules in the asymmetric unit); inspection of the crystal structures; both purified

B1: PatA (Phosphatidyl-myo-inositol mannosides AcylTransferase A) from Mycobacterium smegmatis, truncated version lacking the first 12 residues (enzyme, UniProt A0QWG5 13-304)
chain: VTDLGYAAGWRLVRAMPEAMAQGVFGAGARYAARNGGPEQLRRNLARVVGKPPADVPDDLIRASLASYARYWREAFRLPAMDHGRLGEQLDVIDIDHLWSALDAGRGAVLALPHSGNWDMAGVWLVQNYGPFTTVAERLKPESLYRRFVEYRESLGFEVLPLTGGERPPFEVLAERLTDNRPICLMAERDLTRSGVQVDFFGEATRMPAGPAKLAIETGAALFPVHCWFEGDGWGMRVYPELDTSSGDVTAITQALADRFAANIATYPADWHMLQPQWIADLSDERRARLGT
binding: no binding
